Experimental data taken from PubChem BioAssay AID540276 (National Center for Advancing Translational Sciences (NCATS), 2011).
Among all 300,000 compounds or so, about 5,400 (1.8%) were called active. Inconclusive results, whose numbers are uncertain, are shown with a selection of clear calls. The call rests on the fitted dose curve; tested in HEK293 cells. Potencies beside an inconclusive call are fits to weak or partial responses and may not hold up.

Experiment: qHTS for inhibitors of binding or entry into cells for Marburg Virus
Conditions: Marburg virus pseudotyped entry inhibition, cell reporter; series mostly up to 37.8 µM
Potency means the concentration at half of the fitted maximal effect.

| SMILES | Potency |
| --- | --- |
| OC(CON=C1c2ccccc2-c2ccccc21)CN1CCNCC1 (configuration not stated) | inconclusive: 11.2 µM [inhibitor, partial curve, poor fit] |
| COc1cc(C(=O)Nc2ccc(C)cc2)c2ccccc2n1 | inconclusive: 1 µM [inhibitor, full curve, poor fit] |
| CCOC(=O)c1sc(N2C(=O)C(O)=C(C(=O)c3ccco3)C2c2ccco2)nc1C (configuration not stated) | inactive |
| Cc1ccc(-c2c[n+](CC(=O)Nc3ccc(C)cc3C)c3n2CCC3)cc1 | inactive |
| O=C(c1sc2ccccc2c1Cl)N1CCN(c2ncccn2)CC1 | inactive |
| Fc1ccc(F)c(CNc2ncnc3cc(Cl)ccc23)c1 | inconclusive: 22.4 µM [inhibitor, single point] |
| CC(=O)O[C@]1(C(C)=O)CC[C@H]2C3C=C(Cl)C4=CC(=O)[C@@H]5C[C@H]5[C@]4(C)C3CC[C@@]21C (some centres not stated) | inconclusive: 3.16 µM [inhibitor, full curve, poor fit] |
| CC(=O)N1CCc2cc(S(=O)(=O)NC(CC(C)C)C(=O)N3CCn4c3nc3ccccc34)ccc21 (configuration not stated) | inconclusive: 7.3 µM [activator, partial curve, poor fit] |
| COc1ccc(NC(=O)Nc2nnc(-c3ccncc3)s2)cc1 | inconclusive: 6.31 µM [activator, single point] |
| Cc1ccc(OCCNC(=O)c2cc(C(=O)NCCOc3ccc(C)cc3)cc([N+](=O)[O-])c2)cc1 | inconclusive: 11.2 µM [inhibitor, partial curve] |
| CCC1(c2ccc(Cl)cc2)NC(=O)N(CC(=O)NC2CCCC(C)C2C)C1=O (configuration not stated) | inconclusive: 12.6 µM [inhibitor, partial curve, poor fit] |
| CCCCCCN1C[C@H](O)[C@@H](n2cc(COC(=O)c3ccccc3)nn2)C[C@H]1c1ccc(Cl)cc1 | inconclusive: 14.1 µM [inhibitor, partial curve, poor fit] |
| O=C1C2CCCN2C(=O)N1CCN1CCN(c2ccccc2)CC1 (configuration not stated) | inconclusive: 31.6 µM [activator, single point] |
| CCC(=O)Nc1nn(C)c2nc3c(C)cccc3cc12 | inactive |
| COc1cccc(CN2CCC(N(CCc3ccccc3)Cc3ccccc3)CC2)c1OC | active: 7.94 µM |
| O=C(O)CNC(=O)c1ccc(NC(=O)/C(=C/c2ccccc2)NC(=O)c2ccco2)cc1 | inconclusive: 35.5 µM [activator, single point] |
| COc1cccc(CN2CCN(Cc3cc4ccccc4o3)CC2CCO)c1 (configuration not stated) | inconclusive: 15.8 µM [inhibitor, partial curve, poor fit] |
| COc1cc2c(cc1OC)CN(CC(O)c1ccccc1)CC2 (configuration not stated) | inactive |
| Cc1ccc(-n2c(C)cn(C(=O)c3ccccc3)c2=S)cc1 | inconclusive: 0.291 µM [inhibitor, partial curve] |
| CC1CCCN(C(=O)COC(=O)C2=COCCO2)C1 (configuration not stated) | inconclusive: 7.94 µM [activator, partial curve, poor fit] |
| Cc1ccc2c(c1)CCCN2C(=O)C1CCCO1 (configuration not stated) | inconclusive: 5.17 µM [inhibitor, partial curve, poor fit] |

Looked up above:
Potency, `COc1cc2c(cc1OC)CN(CC(O)c1ccccc1)CC2` (configuration not stated) is entered as inactive
Potency, `Cc1ccc2c(c1)CCCN2C(=O)C1CCCO1` (configuration not stated) is entered as inconclusive: 5.17 µM [inhibitor, partial curve, poor fit]
Potency, `Cc1ccc(-n2c(C)cn(C(=O)c3ccccc3)c2=S)cc1` is entered as inconclusive: 0.291 µM [inhibitor, partial curve]

The results go on.

| SMILES | Potency |
| --- | --- |
| COc1ccc(CNC(=O)c2c(O)c3ccccc3n(C)c2=O)cc1 | inconclusive: 3.55 µM [inhibitor, single point] |
| CSc1nc2ccsc2c(=O)n1-c1ccccn1 | inactive |
| COc1ccc(CCNC(=O)C(NC(=O)OCc2ccccc2)C(C)C)cc1OC (configuration not stated) | inconclusive: 6.31 µM [inhibitor, single point] |
| Cc1ccc(S(=O)(=O)N2c3ccccc3CC2C)cc1 (configuration not stated) | inconclusive: 10 µM [inhibitor, partial curve, poor fit] |
| Cc1nc(SCc2ccccc2F)c2oc3ccccc3c2n1 | inconclusive: 35.5 µM [inhibitor, single point] |
| Nc1nc(-c2ccc([N+](=O)[O-])cc2)cc(=O)[nH]1 | inconclusive: 14.1 µM [activator, partial curve, poor fit] |
| CCOC(=O)c1ccc(NC(=O)CNC(=O)C2CCCCC2)cc1 | inactive |
| NC(=O)c1ccc(-n2nc(C(F)(F)F)c3c2CCCC3)cc1 | inconclusive: 0.562 µM [activator, full curve, poor fit] |
| COc1cc(/C=N/N(C)C)ccc1OC(=O)c1cccs1 | inactive |
| Cc1ccc(S(=O)(=O)/N=C(/Nc2ccc3[nH]c(=O)[nH]c3c2)c2ccccc2)cc1 | inconclusive: 22.4 µM [activator, single point] |
| Cc1ccc(C(=O)Nc2ccccc2C(=O)NCc2ccco2)cc1S(=O)(=O)N1CCCCC1 | inconclusive: 18.3 µM [inhibitor, single point] |
| CCOc1cccc2c1Oc1nc(-c3ccccc3)nc(SCC(=O)Nc3ccc(F)cc3)c1C2 | inconclusive: 14.1 µM [activator, single point] |
| Cc1cc(C(=O)NC2CCCc3c2cnn3-c2ccc(C)c(C)c2)nc(C)n1 (configuration not stated) | inconclusive: 11.2 µM [inhibitor, partial curve, poor fit] |
| OCCNc1nc2ccc(Cl)cc2[nH]1 | inconclusive: 16.4 µM [activator, single point] |
| O=C(OCn1nnc2ccccc2c1=O)C1CCN(S(=O)(=O)c2cccs2)CC1 | inconclusive: 1.26 µM [inhibitor, single point] |
| CCCN(C(=O)COC(=O)CC1CCCCC1)c1c(N)n(Cc2ccccc2)c(=O)[nH]c1=O | inactive |
| O=C(NNC(=O)C1CCN(Cc2ccccc2)CC1)c1cccc(Cl)c1 | inconclusive: 0.355 µM [activator, full curve, poor fit] |
| O=C1OCc2ccc([N+](=O)[O-])cc21 | inactive |
| Cc1ccc(-c2nnc(Nc3ccc(F)cc3)c3ccccc23)cc1S(=O)(=O)N1CCN(C)CC1 | inactive |
| COc1ccc(NC(=O)COC(=O)/C=C/C(=O)OCC(=O)Nc2ccc(OC)c(Cl)c2)cc1Cl | inconclusive: 11.2 µM [inhibitor, partial curve, poor fit] |
| CCCCn1c(SCC(=O)NCc2cccs2)nc2c1c(=O)n(C)c(=O)n2C | inactive |
